Reference: the supplement of paper PMC10849652
Some of the results follow.

Chains of the proteins cited; added tags and fusions are not shown. Lines headed by an entry give the natural chain unless they say otherwise; changes in a name come on top.
UniProt Q9UN37: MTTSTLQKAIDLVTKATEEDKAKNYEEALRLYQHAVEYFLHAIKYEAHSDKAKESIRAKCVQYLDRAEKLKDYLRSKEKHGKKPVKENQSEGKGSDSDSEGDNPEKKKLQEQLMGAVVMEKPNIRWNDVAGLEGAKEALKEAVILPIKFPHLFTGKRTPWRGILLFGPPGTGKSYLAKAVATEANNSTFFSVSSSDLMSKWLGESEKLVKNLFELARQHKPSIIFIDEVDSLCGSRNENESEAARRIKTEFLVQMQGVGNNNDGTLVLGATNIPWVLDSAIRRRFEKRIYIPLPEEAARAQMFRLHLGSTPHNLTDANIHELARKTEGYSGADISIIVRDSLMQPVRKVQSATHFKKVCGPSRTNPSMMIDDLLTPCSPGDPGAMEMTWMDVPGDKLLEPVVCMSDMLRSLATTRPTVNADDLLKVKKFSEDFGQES
UniProt Q8TAF3: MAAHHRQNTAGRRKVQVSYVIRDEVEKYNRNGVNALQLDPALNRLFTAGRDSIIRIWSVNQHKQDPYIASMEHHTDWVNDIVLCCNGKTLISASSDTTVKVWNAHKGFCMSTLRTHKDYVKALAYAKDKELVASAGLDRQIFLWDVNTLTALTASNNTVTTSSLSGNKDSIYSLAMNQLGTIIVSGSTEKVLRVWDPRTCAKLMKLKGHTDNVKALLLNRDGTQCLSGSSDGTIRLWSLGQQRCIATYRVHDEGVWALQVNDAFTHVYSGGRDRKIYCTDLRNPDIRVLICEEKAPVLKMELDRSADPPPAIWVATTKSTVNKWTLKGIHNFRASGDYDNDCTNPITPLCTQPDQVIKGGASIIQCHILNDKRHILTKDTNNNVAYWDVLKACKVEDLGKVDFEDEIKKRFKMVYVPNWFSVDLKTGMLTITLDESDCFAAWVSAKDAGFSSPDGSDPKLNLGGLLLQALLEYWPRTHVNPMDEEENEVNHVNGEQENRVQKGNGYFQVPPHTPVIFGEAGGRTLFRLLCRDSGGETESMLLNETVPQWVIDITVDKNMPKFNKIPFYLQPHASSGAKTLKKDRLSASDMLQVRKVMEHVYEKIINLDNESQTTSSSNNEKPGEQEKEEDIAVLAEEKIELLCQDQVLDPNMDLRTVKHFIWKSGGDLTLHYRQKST
UniProt Q4G0F5, whole entry, looked up: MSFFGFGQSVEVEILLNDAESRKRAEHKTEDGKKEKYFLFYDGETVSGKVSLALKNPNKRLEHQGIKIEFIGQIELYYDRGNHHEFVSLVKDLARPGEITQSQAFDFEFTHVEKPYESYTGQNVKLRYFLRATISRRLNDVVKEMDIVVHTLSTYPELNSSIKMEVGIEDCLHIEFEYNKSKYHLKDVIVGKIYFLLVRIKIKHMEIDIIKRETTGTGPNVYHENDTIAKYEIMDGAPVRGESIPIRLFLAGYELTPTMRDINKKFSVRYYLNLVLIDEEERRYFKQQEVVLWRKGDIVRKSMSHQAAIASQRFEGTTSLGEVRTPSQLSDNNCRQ
UniProt Q9NRW7: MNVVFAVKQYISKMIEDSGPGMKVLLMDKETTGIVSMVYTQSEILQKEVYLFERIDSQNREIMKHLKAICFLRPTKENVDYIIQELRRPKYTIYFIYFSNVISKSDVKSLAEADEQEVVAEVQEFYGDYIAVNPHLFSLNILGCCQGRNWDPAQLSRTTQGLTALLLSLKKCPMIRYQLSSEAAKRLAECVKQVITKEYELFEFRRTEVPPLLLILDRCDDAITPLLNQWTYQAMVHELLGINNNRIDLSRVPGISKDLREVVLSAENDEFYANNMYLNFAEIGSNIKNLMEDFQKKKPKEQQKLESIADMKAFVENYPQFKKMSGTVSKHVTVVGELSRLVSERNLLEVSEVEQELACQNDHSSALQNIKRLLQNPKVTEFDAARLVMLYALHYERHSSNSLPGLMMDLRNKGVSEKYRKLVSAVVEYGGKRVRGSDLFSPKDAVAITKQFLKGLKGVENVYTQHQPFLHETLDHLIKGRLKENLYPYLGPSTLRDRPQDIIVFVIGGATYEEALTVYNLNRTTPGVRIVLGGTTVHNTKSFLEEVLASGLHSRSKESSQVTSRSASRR
UniProt O75083: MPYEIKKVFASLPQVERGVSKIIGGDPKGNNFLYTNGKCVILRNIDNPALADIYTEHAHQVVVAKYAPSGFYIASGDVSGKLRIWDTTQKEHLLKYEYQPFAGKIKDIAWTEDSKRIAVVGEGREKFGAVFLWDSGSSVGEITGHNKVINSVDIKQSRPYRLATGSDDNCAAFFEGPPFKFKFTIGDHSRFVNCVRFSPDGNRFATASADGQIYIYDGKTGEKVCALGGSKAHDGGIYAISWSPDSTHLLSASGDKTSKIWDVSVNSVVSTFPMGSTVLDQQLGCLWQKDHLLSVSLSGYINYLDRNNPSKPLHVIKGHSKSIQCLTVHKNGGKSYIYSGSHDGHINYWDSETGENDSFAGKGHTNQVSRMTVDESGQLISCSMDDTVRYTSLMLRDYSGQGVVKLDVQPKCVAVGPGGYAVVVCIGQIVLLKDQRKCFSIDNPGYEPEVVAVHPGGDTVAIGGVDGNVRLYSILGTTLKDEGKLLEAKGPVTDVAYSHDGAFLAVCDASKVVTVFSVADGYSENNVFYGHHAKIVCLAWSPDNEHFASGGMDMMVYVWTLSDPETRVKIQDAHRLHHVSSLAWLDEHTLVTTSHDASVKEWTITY
UniProt Q9Y4P8: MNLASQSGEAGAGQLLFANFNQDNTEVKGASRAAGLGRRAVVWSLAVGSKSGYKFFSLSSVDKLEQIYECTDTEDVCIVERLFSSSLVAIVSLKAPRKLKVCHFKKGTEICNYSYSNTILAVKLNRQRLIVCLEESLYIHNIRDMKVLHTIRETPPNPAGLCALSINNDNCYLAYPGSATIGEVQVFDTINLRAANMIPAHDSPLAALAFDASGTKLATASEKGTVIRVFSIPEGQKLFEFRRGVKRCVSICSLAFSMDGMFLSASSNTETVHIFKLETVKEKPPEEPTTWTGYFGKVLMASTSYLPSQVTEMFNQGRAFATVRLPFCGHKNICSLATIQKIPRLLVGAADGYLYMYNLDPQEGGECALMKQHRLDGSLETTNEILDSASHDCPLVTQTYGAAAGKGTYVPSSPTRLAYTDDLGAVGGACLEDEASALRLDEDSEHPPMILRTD
UniProt Q96GC9: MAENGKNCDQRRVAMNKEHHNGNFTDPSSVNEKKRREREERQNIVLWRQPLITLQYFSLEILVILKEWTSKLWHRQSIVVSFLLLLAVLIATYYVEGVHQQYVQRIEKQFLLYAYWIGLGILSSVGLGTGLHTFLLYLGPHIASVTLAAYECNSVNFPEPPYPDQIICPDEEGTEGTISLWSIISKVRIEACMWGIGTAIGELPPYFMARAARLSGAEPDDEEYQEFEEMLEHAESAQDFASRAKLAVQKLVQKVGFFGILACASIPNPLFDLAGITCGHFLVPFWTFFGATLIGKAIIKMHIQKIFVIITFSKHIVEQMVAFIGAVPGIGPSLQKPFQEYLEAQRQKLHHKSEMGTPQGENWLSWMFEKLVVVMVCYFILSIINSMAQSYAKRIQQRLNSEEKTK
UniProt Q6UXN9, whole entry, looked up: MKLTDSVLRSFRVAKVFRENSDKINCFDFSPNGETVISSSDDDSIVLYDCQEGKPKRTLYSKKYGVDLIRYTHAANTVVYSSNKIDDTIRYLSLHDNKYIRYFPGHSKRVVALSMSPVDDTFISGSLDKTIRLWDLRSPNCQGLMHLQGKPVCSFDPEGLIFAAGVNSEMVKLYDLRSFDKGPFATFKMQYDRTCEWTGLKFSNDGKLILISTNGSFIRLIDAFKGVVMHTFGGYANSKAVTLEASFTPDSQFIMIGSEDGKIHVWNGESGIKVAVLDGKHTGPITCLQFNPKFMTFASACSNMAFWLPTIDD
UniProt Q969T9: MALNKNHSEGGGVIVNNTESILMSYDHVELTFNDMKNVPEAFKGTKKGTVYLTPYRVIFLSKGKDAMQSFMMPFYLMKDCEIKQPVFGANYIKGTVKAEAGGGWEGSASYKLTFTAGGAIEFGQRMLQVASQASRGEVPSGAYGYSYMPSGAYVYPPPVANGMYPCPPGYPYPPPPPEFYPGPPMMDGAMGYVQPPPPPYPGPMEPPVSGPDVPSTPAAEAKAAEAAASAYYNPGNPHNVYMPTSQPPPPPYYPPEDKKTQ
UniProt Q96MX6, whole entry, looked up: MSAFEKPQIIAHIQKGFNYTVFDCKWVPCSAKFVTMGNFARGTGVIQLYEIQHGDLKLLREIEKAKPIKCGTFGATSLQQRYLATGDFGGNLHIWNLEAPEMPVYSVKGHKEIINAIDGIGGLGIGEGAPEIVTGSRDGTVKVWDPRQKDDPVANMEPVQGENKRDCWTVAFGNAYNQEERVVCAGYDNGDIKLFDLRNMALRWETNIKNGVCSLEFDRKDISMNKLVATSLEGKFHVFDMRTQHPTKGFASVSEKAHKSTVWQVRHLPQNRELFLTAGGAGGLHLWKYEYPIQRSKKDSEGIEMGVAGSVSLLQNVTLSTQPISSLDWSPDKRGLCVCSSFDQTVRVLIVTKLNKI
UniProt Q9H6Y2: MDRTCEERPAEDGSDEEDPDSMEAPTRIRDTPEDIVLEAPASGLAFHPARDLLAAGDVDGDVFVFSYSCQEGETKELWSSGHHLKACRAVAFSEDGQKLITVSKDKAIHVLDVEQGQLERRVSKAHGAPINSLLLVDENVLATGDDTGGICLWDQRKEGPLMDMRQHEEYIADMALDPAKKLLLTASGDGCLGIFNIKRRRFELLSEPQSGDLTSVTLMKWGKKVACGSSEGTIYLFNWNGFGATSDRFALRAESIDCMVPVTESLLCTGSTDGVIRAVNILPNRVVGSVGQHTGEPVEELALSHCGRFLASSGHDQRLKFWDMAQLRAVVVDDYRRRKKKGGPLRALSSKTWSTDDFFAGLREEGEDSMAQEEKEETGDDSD
UniProt P08670, whole entry, looked up: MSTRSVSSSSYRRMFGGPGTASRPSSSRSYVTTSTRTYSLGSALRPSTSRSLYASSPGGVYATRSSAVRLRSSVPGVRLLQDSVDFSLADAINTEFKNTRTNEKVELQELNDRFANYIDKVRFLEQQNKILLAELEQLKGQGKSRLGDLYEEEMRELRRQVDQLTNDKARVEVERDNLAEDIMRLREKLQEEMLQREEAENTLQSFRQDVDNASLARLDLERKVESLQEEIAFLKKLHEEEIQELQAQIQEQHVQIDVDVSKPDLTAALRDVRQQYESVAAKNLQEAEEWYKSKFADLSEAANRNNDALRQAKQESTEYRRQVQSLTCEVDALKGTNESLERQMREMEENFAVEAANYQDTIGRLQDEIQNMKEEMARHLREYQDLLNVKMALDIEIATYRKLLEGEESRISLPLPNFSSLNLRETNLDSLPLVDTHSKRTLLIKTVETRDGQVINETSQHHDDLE

Key:
Test in all cases: log2 fold change, soluble protein after heating vs DMSO (PISA); higher = thermal stabilisation; K562 cells, 10 uM, 30 min; active = over 0.2 and 3.5 SD of the protein, either way, in both replicates (recomputed)
[1] = compound: CS(=O)(=O)c1ccc(-c2cnc(N)c(C(=O)Nc3ccccc3)n2)cc1
Method in brief: (§1)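 Soluble protein was quantified by TMTpro 16plex LC-MS/MS after channel sums were equalised. It was obtained as the supernatant after 21,000xg for 90 min from pooled aliquots of K562 cells (2×10^6 cells/mL, 10 μM compound, 30 min) heated for 3 min across 48°C-58°C and extracted in PBS with 0.5% NP-40 at 4°C. Thermal stability values are relative to control samples and come from duplicates. They are given as log2 fold changes.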

crizotinib = compound: C[C@@H](Oc1cc(-c2cnn(C3CCNCC3)c2)cnc1N)c1c(Cl)ccc(F)c1Cl [crizotinib]
Method in brief: as §1

[2] = compound: C[C@@H]1COCCN1C2=NC(=NC(=C2)C3(CC3)S(=O)(=O)C)C4=C5C=CNC5=CC=C4
Method in brief: as §1

[3] = compound: C[C@H](C1=CC=C(C=C1)C(=O)NC2=C3C=CNC3=NC=C2)N
Method in brief: as §1

duvelisib = compound: C[C@H](Nc1ncnc2nc[nH]c12)c1cc2cccc(Cl)c2c(=O)n1-c1ccccc1 [duvelisib]
Method in brief: as §1

gandotinib = compound: Cc1cc(Nc2cc(CN3CCOCC3)c3nc(C)c(Cc4ccc(Cl)cc4F)n3n2)n[nH]1 [gandotinib]
Method in brief: as §1

tozasertib = compound: Cc1cc(Nc2cc(N3CCN(C)CC3)nc(Sc3ccc(NC(=O)C4CC4)cc3)n2)n[nH]1 [tozasertib]
Method in brief: as §1

[4] = compound: Cc1cc(SCc2sc(-c3ccc(C(F)(F)F)cc3)nc2C)ccc1OCC(=O)O
Method in brief: as §1

doramapimod = compound: Cc1ccc(-n2nc(C(C)(C)C)cc2NC(=O)Nc2ccc(OCCN3CCOCC3)c3ccccc23)cc1 [doramapimod]
Method in brief: as §1

ispinesib = compound: Cc1ccc(C(=O)N(CCCN)[C@@H](c2nc3cc(Cl)ccc3c(=O)n2Cc2ccccc2)C(C)C)cc1 [ispinesib]
Method in brief: as §1

bafetinib = compound: Cc1ccc(NC(=O)c2ccc(CN3CC[C@H](N(C)C)C3)c(C(F)(F)F)c2)cc1Nc1nccc(-c2cncnc2)n1 [bafetinib]
Method in brief: as §1

[5] = compound: Cc1cccc(CC(=O)N2CCc3c2ccc(-c2cn(C)c4ncnc(N)c24)c3F)n1
Method in brief: as §1

nilotinib = compound: Cc1cn(-c2cc(NC(=O)c3ccc(C)c(Nc4nccc(-c5cccnc5)n4)c3)cc(C(F)(F)F)c2)cn1 [nilotinib]
Method in brief: as §1

[6] = compound: Cc1nc(Nc2n[nH]c3c2CN(C(=O)N[C@H](CN(C)C)c2ccccc2)C3(C)C)c2sccc2n1
Method in brief: as §1

dasatinib = compound: Cc1nc(Nc2ncc(C(=O)Nc3c(C)cccc3Cl)s2)cc(N2CCN(CCO)CC2)n1 [dasatinib]
Method in brief: as §1

[7] = compound: Cc1ncc(-c2ccnc(Nc3ccc(S(C)(=O)=O)cc3)n2)n1C(C)C
Method in brief: as §1

[8] = compound: Cn1cc(-c2ccc3c(c2)CCN3C(=O)Cc2cccc(C(F)(F)F)c2)c2c(N)ncnc21
Method in brief: as §1

[9] = compound: Cn1cc(-c2ccc3nnc(C(F)(F)c4ccc5ncccc5c4)n3n2)cn1
Method in brief: as §1

tipifarnib = compound: Cn1cncc1[C@@](N)(c1ccc(Cl)cc1)c1ccc2c(c1)c(-c1cccc(Cl)c1)cc(=O)n2C [tipifarnib]
Method in brief: as §1

mubritinib = compound: FC(F)(F)c1ccc(/C=C/c2nc(COc3ccc(CCCCn4ccnn4)cc3)co2)cc1 [mubritinib]
Method in brief: as §1

Measured: log2 fold change

VPS4A (UniProt Q9UN37)
inactive: [1] 0.048 | crizotinib -0.174 | [2] 0.079 | [3] -0.022 | duvelisib 0.023 | gandotinib -0.058 | tozasertib -0.022 | [4] 0.023 | doramapimod -0.023 | ispinesib -0.059 | bafetinib -0.028 | [5] 0.073 | nilotinib -0.089 | [6] 0.001 | dasatinib -0.119 | [7] 0.017 | [8] 0.044 | [9] -0.004 | tipifarnib -0.063 | mubritinib -0.078

WDR48 (UniProt Q8TAF3)
inactive: [1] -0.017 | crizotinib 0.062 | [2] 0.076 | [3] 0.008 | duvelisib 0.028 | gandotinib -0.005 | tozasertib -0.019 | [4] -0.038 | doramapimod -0.032 | ispinesib 0.012 | bafetinib -0.033 | [5] -0.049 | nilotinib 0.01 | [6] -0.003 | dasatinib 0.041 | [7] 0.005 | [8] 0.017 | [9] 0.02 | tipifarnib 0.031 | mubritinib 0.039

WDR26, A0A499FIZ0
inactive: [1] -0.011 | crizotinib 0.074 | [2] 0.036 | [3] 0.03 | duvelisib 0 | gandotinib 0 | tozasertib 0.079 | [4] 0.002 | doramapimod 0.029 | ispinesib 0.018 | bafetinib -0.007 | [5] -0.002 | nilotinib -0.034 | [6] -0.031 | dasatinib 0.018 | [7] -0.007 | [8] -0.1 | [9] 0.007 | tipifarnib 0.054 | mubritinib -0.02

VPS26B (UniProt Q4G0F5)
inactive: [1] 0.024 | crizotinib -0.022 | [2] -0.01 | [3] -0.015 | duvelisib 0.004 | gandotinib -0.068 | tozasertib -0.021 | [4] 0.019 | doramapimod -0.008 | ispinesib -0.018 | bafetinib -0.076 | [5] 0.007 | nilotinib 0.001 | [6] -0.018 | dasatinib -0.086 | [7] -0.02 | [8] 0.038 | [9] -0.003 | tipifarnib -0.02 | mubritinib 0.08

VPS29 isoform 2 (UniProt Q9UBQ0)
inactive: [1] 0.04 | crizotinib -0.008 | [2] 0.018 | [3] -0.045 | duvelisib 0.007 | gandotinib -0.052 | tozasertib -0.042 | [4] -0.092 | doramapimod -0.015 | ispinesib -0.002 | bafetinib -0.043 | [5] 0.034 | nilotinib 0.01 | [6] 0.014 | dasatinib 0.064 | [7] 0.012 | [8] -0.004 | [9] 0.005 | tipifarnib 0.023 | mubritinib 0.036

VPS45 (UniProt Q9NRW7)
inactive: [1] 0.045 | crizotinib -0.11 | [2] 0.023 | [3] 0.034 | duvelisib -0.013 | gandotinib -0.082 | tozasertib -0.063 | [4] 0.149 | doramapimod -0.026 | ispinesib -0.174 | bafetinib -0.048 | [5] 0.062 | nilotinib -0.086 | [6] -0.091 | dasatinib -0.123 | [7] 0.046 | [8] 0.038 | [9] 0.103 | tipifarnib -0.013 | mubritinib 0.028

WDR1 (UniProt O75083)
inactive: [1] 0.049 | crizotinib 0.01 | [2] 0.075 | [3] -0.059 | duvelisib 0.047 | gandotinib -0.004 | tozasertib -0.009 | [4] 0.038 | doramapimod -0.024 | ispinesib 0.062 | bafetinib 0.006 | [5] 0.002 | nilotinib 0.002 | [6] 0.018 | dasatinib 0.002 | [7] -0.012 | [8] 0.122 | [9] 0.011 | tipifarnib -0.092 | mubritinib 0.093

WIPI2 (UniProt Q9Y4P8)
inactive: [1] 0.013 | crizotinib -0.084 | [2] 0.221 | [3] -0.013 | duvelisib -0.081 | gandotinib -0.007 | tozasertib -0.067 | [4] 0.01 | doramapimod 0.035 | ispinesib -0.06 | bafetinib -0.065 | [5] -0.01 | nilotinib -0.015 | [6] -0.018 | dasatinib -0.068 | [7] -0.134 | [8] 0.08 | [9] -0.03 | tipifarnib -0.034 | mubritinib -0.025

VMP1 (UniProt Q96GC9)
inactive: [1] 0 | crizotinib 0.068 | [2] -0.19 | [3] 0.006 | duvelisib -0.017 | gandotinib -0.019 | tozasertib -0.01 | [4] -0.024 | doramapimod 0.02 | ispinesib -0.011 | bafetinib -0.064 | [5] -0.014 | nilotinib 0.07 | [6] -0.027 | dasatinib 0.014 | [7] 0.053 | [8] 0.015 | [9] 0.012 | tipifarnib 0.04 | mubritinib 0.033

Quoted from the entries so far (2 entries):
VPS45 (UniProt Q9NRW7)
inactive: [1] 0.045 | crizotinib -0.11 | [2] 0.023 | [3] 0.034 | duvelisib -0.013 | gandotinib -0.082 | tozasertib -0.063 | [4] 0.149 | doramapimod -0.026 | ispinesib -0.174 | bafetinib -0.048 | [5] 0.062 | nilotinib -0.086 | [6] -0.091 | dasatinib -0.123 | [7] 0.046 | [8] 0.038 | [9] 0.103 | tipifarnib -0.013 | mubritinib 0.028

WDR1 (UniProt O75083)
inactive: [1] 0.049 | crizotinib 0.01 | [2] 0.075 | [3] -0.059 | duvelisib 0.047 | gandotinib -0.004 | tozasertib -0.009 | [4] 0.038 | doramapimod -0.024 | ispinesib 0.062 | bafetinib 0.006 | [5] 0.002 | nilotinib 0.002 | [6] 0.018 | dasatinib 0.002 | [7] -0.012 | [8] 0.122 | [9] 0.011 | tipifarnib -0.092 | mubritinib 0.093

Following part:

WDTC1 (UniProt Q8N5D0)
inactive: [1] -0.055 | crizotinib 0.137 | [2] 0.009 | [3] 0.129 | duvelisib -0.035 | gandotinib 0.025 | tozasertib 0.021 | [4] -0.069 | doramapimod -0.131 | ispinesib 0.008 | bafetinib -0.079 | [5] 0 | nilotinib -0.086 | [6] 0.186 | dasatinib -0.139 | [7] -0.255 | [8] 0.017 | [9] 0.02 | tipifarnib -0.131 | mubritinib 0.158

WDR82 (UniProt Q6UXN9)
inactive: [1] -0.014 | crizotinib 0.047 | [2] -0.133 | [3] 0.09 | duvelisib -0.086 | gandotinib 0.111 | tozasertib 0.04 | [4] -0.003 | doramapimod 0.062 | ispinesib 0.014 | bafetinib 0.059 | [5] -0.019 | nilotinib 0 | [6] 0.117 | dasatinib 0.091 | [7] 0.03 | [8] -0.111 | [9] -0.063 | tipifarnib 0.059 | mubritinib -0.041

VPS26C (UniProt O14972)
inactive: [1] 0.05 | crizotinib -0.157 | [2] -0.052 | [3] 0.028 | duvelisib 0.071 | gandotinib -0.139 | tozasertib 0.014 | [4] 0.005 | doramapimod -0.063 | ispinesib -0.065 | bafetinib -0.009 | [5] 0.017 | nilotinib 0.06 | [6] -0.205 | dasatinib -0.049 | [7] -0.091 | [8] 0.005 | [9] -0.073 | tipifarnib 0.042 | mubritinib -0.005

WBP2 (UniProt Q969T9)
inactive: [1] 0.033 | crizotinib 0.024 | [2] -0.007 | [3] -0.087 | duvelisib 0.029 | gandotinib 0.06 | tozasertib 0.004 | [4] 0.019 | doramapimod -0.028 | ispinesib 0.052 | bafetinib -0.035 | [5] 0.007 | nilotinib 0.016 | [6] -0.024 | dasatinib -0.011 | [7] 0.015 | [8] 0.041 | [9] 0.018 | tipifarnib -0.01 | mubritinib 0.04

WDR92 (UniProt Q96MX6)
inactive: [1] 0.055 | crizotinib -0.071 | [2] -0.046 | [3] -0.089 | duvelisib -0.013 | gandotinib 0.053 | tozasertib 0.024 | [4] 0.132 | doramapimod 0 | ispinesib 0.001 | bafetinib 0.057 | [5] 0.051 | nilotinib -0.011 | [6] 0.03 | dasatinib -0.146 | [7] 0.101 | [8] 0 | [9] -0.088 | tipifarnib -0.074 | mubritinib 0.041

WDR55 (UniProt Q9H6Y2)
inactive: [1] -0.004 | crizotinib 0.105 | [2] -0.009 | [3] 0.063 | duvelisib 0.064 | gandotinib 0.014 | tozasertib 0.013 | [4] -0.03 | doramapimod -0.03 | ispinesib 0.061 | bafetinib -0.035 | [5] -0.109 | nilotinib -0.034 | [6] 0.007 | dasatinib 0 | [7] 0.005 | [8] -0.011 | [9] -0.029 | tipifarnib 0.074 | mubritinib 0.014

VIM (UniProt P08670)
inactive: [1] 0.072 | crizotinib 0.283 | [2] -0.326 | [3] 0.188 | duvelisib -0.234 | gandotinib 0.179 | tozasertib 0.405 | [4] 0.105 | doramapimod 0.176 | ispinesib -0.129 | bafetinib -0.068 | [5] -0.004 | nilotinib 0.091 | [6] -0.117 | dasatinib 0.389 | [7] -0.047 | [8] -0.278 | [9] -0.143 | tipifarnib 0.251 | mubritinib -0.283
